What was measured:
[1] = Description: (§1) Individual adult organisms (n = 25), both male and female (>5 mg wet weight) were placed in Pyrex glass beakers. G. pulex were carefully transferred to beakers using blunt forceps to avoid any harm to the organisms before exposure. Each beaker contained 25 organisms in 200 mL of exposure media (AFW and test compound). […] All exposure media contained <0.001% of organic solvent (methanol). A total of 300 organisms were used per compound exposure and were sampled for n = 3 per time-point. […] These were subsequently analysed for background contamination. […] Each animal specimen was rinsed with ultra-pure water and then frozen at −20 °C.
(§2) Water samples collected from exposure experiments were filtered using Whatman filters (0.2 μM) and directly injected onto the LC-MS/MS for analysis. For G. pulex, A mass of 50 mg of lyophilised and ground material was extracted by glass bead pulverisation in 5 mL of acetonitrile and diluted with 100 mL of ammonium acetate buffer (10 mM) for loading onto Waters HLB solid phase extraction (SPE) cartridges (6 cc, 200 mg sorbent).

Gammarus pulex = test: in vivo; conditions: exposure 1 μg L^−1 (warfarin, propranolol 10 μg L^−1)
Description: as §1, §2
(§3) Briefly, separations were performed on an Agilent HP1100 LC system configured with a Waters SunFire reversed-phase C18 column (150 mm × 2.1 mm, 2.5 μM particle size). […] Detection was performed using a Waters Quattro triple quadrupole mass spectrometer with electrospray ionisation operated in positive and negative polarity switching mode. Quantification of analytes was performed using 3-point internal standard matrix-matched calibration using the peak area ratio of non-labelled analyte (precursor range: 50–300 ng g^−1, biotransformation product range: 50–150 ng g^−1) to the stable isotope labelled internal standard (SIL-IS) (100 ng g^−1).
(§4) Herein, the authors define BCFtotal as the summation of the BCF of both parent/precursor and biotransformation products (i.e. the total body burden). Whereas, BCFparent will be used to describe the BCF determined for the parent compound alone.

in vivo = conditions: both, Gammarus pulex, in vivo, G. pulex
Description: as §1, §2, §3, §4

[2] = sequential, Levenberg-Marquardt algorithm
[3] = sequential, linear regression on elimination data

Compound: COC(=O)C1=C(C)NC(C)=C(C(=O)OC)C1c1ccccc1[N+](=O)[O-] [Nifedipine, nifedipine]
- Concentration, 24 h ([1]; exposure media after 24 h of exposure with Day 1 solution, n = 3): 0.59 ng/mL
- Concentration, 48 h ([1]; exposure media after 24 h of exposure with Day 2 solution, n = 3 (propranolol n = 2)): 0.49 ng/mL
- average decrease of aqueous concentration ([1]; exposure media, across both days of the uptake phase): 39%
- Concentration, Day 2 (initial pharmaceutical concentration on day 2) ([1]; exposure media, n = 2): 0.82 ng/mL
- Concentration, Day 1 (initial pharmaceutical concentration on day 1) ([1]; exposure media, n = 3, nominal 1 μg L^−1 (propranolol 10 μg L^−1)): 0.94 ng/mL
- BCFparent, Sequential a (Gammarus pulex; [2]): 31 L/kg
- k1, Sequential a (Gammarus pulex; [2]): 0.7802
- k2, Sequential a (Gammarus pulex; [2]): 0.0248
- BCFparent, Sequential b (Gammarus pulex; [3]): 31 L/kg
- k1, Sequential b (Gammarus pulex; [3]): 0.7802
- k2, Sequential b (Gammarus pulex; [3]): 0.0248
- BCFparent, Simultaneous (Gammarus pulex; simultaneous parametrisation): 16 L/kg
- k1 (uptake rate constant), Simultaneous (Gammarus pulex; simultaneous parametrisation): 4677.31
- k2 (depuration rate constant), Simultaneous (Gammarus pulex; simultaneous parametrisation): 295.66
- concentration at 6 h (in vivo; pH 8.19, Concentration, 6h Mean, n=3, exposure 1 μg L^−1 (warfarin, propranolol 10 μg L^−1)): 19 ng/g
- concentration at 24 h (in vivo; pH 8.19, Concentration, 24h Mean, n=3, exposure 1 μg L^−1 (warfarin, propranolol 10 μg L^−1)): 20 ng/g
- concentration at 48 h (in vivo; pH 8.19, Concentration, 48h Mean, n=3, exposure 1 μg L^−1 (warfarin, propranolol 10 μg L^−1)): 16 ng/g
- concentration at 48 h (in vivo; pH 8.19, internal concentration at the end of the uptake phase, 48 h, exposure 1 μg L^−1 (propranolol 10 μg L^−1)): ≤ 51 ng/g

— paper PMC5476196, “Uptake, biotransformation and elimination of selected pharmaceuticals in a freshwater invertebrate measured using liquid chromatography tandem mass spectrometry” (Chemosphere, 2017)
